Test results as given in PMC9653920.
Results are given in words; binding and its absence hold for the method and conditions named. Some entries that bind do so weakly or less than the wild type.

Target: human epidermal growth factor receptor type 2 (HER2) (human (endogenous in SKOV-3, SK-BR-3 and PC-3)) (UniProt P04626)
Test: radioligand binding; binding specificity test on SKOV-3, SK-BR-3 and PC-3 cells; 1 nM labelled DARPin, 1 h at 37 C; control dishes with 100-fold excess of unlabelled DARPin-G3 added 30 min before; percent of cell-associated activity; only the binder purified

B1: [^99mTc]Tc-(HE)3-G3 (designed binder)
chain: MRGSHEHEHEGSDLGKKLLEAARAGQDDEVRILMANGADVNAKDEYGLTPLYLATAHGHLEIVEVLLKNGADVNAVDAIGFTPLHLAAFIGHLEIAEVLLKHGADVNAQDKFGKTAFDISIGNGNEDLAEILQKLN
modifications: [99mTc]Tc(CO)3 (tricarbonyl technetium) on the N-terminal (HE)3 sequence
Which binding does the source give for B1 here?
Its binding is “binds”.
